# Data as given in PubChem BioAssay AID1159578 (Peter MacCallum Cancer Centre, 2015)
# Assay: 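siRNA pools altering how lymphatic endothelial cells close a scratch wound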 (primary screen)
# Cell system: human lymphatic endothelial cells
# Reagents: siRNA pool against human genes, 40 nM
# Time to read-out: 48 h after transfection
# Measurement: 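High-content imaging of dye-stained cells in a scratch assay measures filled wound area and nuclei per well; duplicate means given as ratio to mock and robust z-score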
# Direction: migration robust z-score: higher = faster migration into the scratch; migration relative to mock: higher = more scratch area covered than mock; nuclei per well: higher = more cells in the well
# Rule for the call: 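Migration changed when robust z exceeds 2 or falls below -2 and mean nuclei number is at least 3300; otherwise not called changed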
# Meaning of the calls: active = migration changed; inactive = no migration change, or too few cells
# The deposit covers about 18,000 reagents; this is a part drawn at random. Over the whole deposit, about 1,030 (5.7%) were called active. 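Inactive calls also include pools with fewer than 3300 nuclei, whose migration was not assessed.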 The raw values are shown without normalisation. Entries without a mark were called inactive.
target,migration robust z-score,migration class with cell-count check,migration relative to mock,"nuclei per well, duplicate mean"
PRRG3 (proline rich and Gla domain 3),-0.48,migration z between -2 and 2; enough cells,0.76,4895
"OPN1MW (opsin 1, medium wave sensitive)",0.52,migration z between -2 and 2; enough cells,0.9,5552
PREP (prolyl endopeptidase),0.21,migration z between -2 and 2; enough cells,0.84,5770
CLGN (calmegin),-0.36,migration z between -2 and 2; enough cells,0.74,6137
MYL11 (myosin light chain 11),-4.4 (active),migration z below -2; enough cells,-0.26,6129
"ST3GAL3 (ST3 beta-galactoside alpha-2,3-sialyltransferase 3)",-0.02,migration z between -2 and 2; enough cells,0.8,4204
DMGDH (dimethylglycine dehydrogenase),0.18,migration z between -2 and 2; enough cells,0.84,5434
MYOT (myotilin),0.3,migration z between -2 and 2; enough cells,0.97,5728
SCAND1 (SCAN domain containing 1),-0.24,migration z between -2 and 2; enough cells,0.82,6070
GSG1L (GSG1 like),-0.23,migration z between -2 and 2; enough cells,0.82,5716
"PCDHGA3 (protocadherin gamma subfamily A, 3)",-0.1,migration z between -2 and 2; enough cells,0.86,5795
"SEC24D (SEC24 homolog D, COPII component)",0.59,migration z between -2 and 2; enough cells,1.03,5123
REPS2 (RALBP1 associated Eps domain containing 2),0.66,migration z between -2 and 2; enough cells,1.06,6142
PLEKHJ1 (pleckstrin homology domain containing J1),-0.16,migration z between -2 and 2; enough cells,0.84,5514
SPACA5 (sperm acrosome associated 5),-1.39,migration z between -2 and 2; enough cells,0.52,4356
MAP1B (microtubule associated protein 1B),-0.82,migration z between -2 and 2; enough cells,0.67,4738
S100A8 (S100 calcium binding protein A8),-2.88 (active),migration z below -2; enough cells,0.14,5343
GAL3ST4 (galactose-3-O-sulfotransferase 4),1.19,migration z between -2 and 2; enough cells,1.04,5458
ZFAND4 (zinc finger AN1-type containing 4),-1.9,migration z between -2 and 2; enough cells,0.39,4765
GRIN2C (glutamate ionotropic receptor NMDA type subunit 2C),1.68,migration z between -2 and 2; enough cells,1.13,5980
ACTR1A (actin related protein 1A),0.14,migration z between -2 and 2; enough cells,0.92,6084

A stretch taken from the entries so far:
target,migration robust z-score,migration class with cell-count check,migration relative to mock,"nuclei per well, duplicate mean"
GSG1L (GSG1 like),-0.23,migration z between -2 and 2; enough cells,0.82,5716
"PCDHGA3 (protocadherin gamma subfamily A, 3)",-0.1,migration z between -2 and 2; enough cells,0.86,5795
"SEC24D (SEC24 homolog D, COPII component)",0.59,migration z between -2 and 2; enough cells,1.03,5123
REPS2 (RALBP1 associated Eps domain containing 2),0.66,migration z between -2 and 2; enough cells,1.06,6142
PLEKHJ1 (pleckstrin homology domain containing J1),-0.16,migration z between -2 and 2; enough cells,0.84,5514
SPACA5 (sperm acrosome associated 5),-1.39,migration z between -2 and 2; enough cells,0.52,4356
MAP1B (microtubule associated protein 1B),-0.82,migration z between -2 and 2; enough cells,0.67,4738
S100A8 (S100 calcium binding protein A8),-2.88 (active),migration z below -2; enough cells,0.14,5343
GAL3ST4 (galactose-3-O-sulfotransferase 4),1.19,migration z between -2 and 2; enough cells,1.04,5458
ZFAND4 (zinc finger AN1-type containing 4),-1.9,migration z between -2 and 2; enough cells,0.39,4765

Next records:
target,migration robust z-score,migration class with cell-count check,migration relative to mock,"nuclei per well, duplicate mean"
NTN4 (netrin 4),1.22,migration z between -2 and 2; enough cells,1.21,6540
RNF114 (ring finger protein 114),0.05,migration z between -2 and 2; enough cells,0.82,5205
TSEN34 (tRNA splicing endonuclease subunit 34),-0.96,migration z between -2 and 2; enough cells,0.62,3950
DAW1 (dynein assembly factor with WD repeats 1),-0.24,migration z between -2 and 2; enough cells,0.82,6146
RAD51AP1 (RAD51 associated protein 1),-1.68,migration z between -2 and 2; enough cells,0.44,5424
CCDC86 (coiled-coil domain containing 86),0.52,migration z between -2 and 2; enough cells,1.02,5633
NISCH (nischarin),0.49,migration z between -2 and 2; enough cells,0.9,5624
SGK1 (serum/glucocorticoid regulated kinase 1),0.31,migration z between -2 and 2; enough cells,0.86,6441
PLEKHM1 (pleckstrin homology and RUN domain containing M1),1.56,migration z between -2 and 2; enough cells,1.29,6848
DIO3 (iodothyronine deiodinase 3),-0.88,migration z between -2 and 2; enough cells,0.64,6750
C4orf46 (chromosome 4 open reading frame 46),0.3,migration z between -2 and 2; enough cells,0.96,5274
INPP1 (inositol polyphosphate-1-phosphatase),0.24,migration z between -2 and 2; enough cells,0.85,5619
FAM120A (family with sequence similarity 120 member A),-0.3,migration z between -2 and 2; enough cells,0.8,5344
SGCE (sarcoglycan epsilon),-0.35,migration z between -2 and 2; enough cells,0.8,5374
CARD11 (caspase recruitment domain family member 11),1.25,migration z between -2 and 2; enough cells,1.04,4763
CRELD2 (CRELD disulfide isomerase 2),0.66,migration z between -2 and 2; enough cells,1.06,5764
MARCO (macrophage receptor with collagenous structure),-0.98,migration z between -2 and 2; enough cells,0.64,7382
"ENKUR (enkurin, TRPC channel interacting protein)",1.62,migration z between -2 and 2; enough cells,1.31,6590
GPR119 (G protein-coupled receptor 119),-0.21,migration z between -2 and 2; enough cells,0.76,6804
NCEH1 (neutral cholesterol ester hydrolase 1),-0.93,migration z between -2 and 2; enough cells,0.62,6460
ELP5 (elongator acetyltransferase complex subunit 5),0.21,migration z between -2 and 2; enough cells,0.94,5244
LMNTD2 (lamin tail domain containing 2),0.38,migration z between -2 and 2; enough cells,0.98,6418
BCL7B (BAF chromatin remodeling complex subunit BCL7B),0.54,migration z between -2 and 2; enough cells,1.02,5692
ZKSCAN5 (zinc finger with KRAB and SCAN domains 5),0.42,migration z between -2 and 2; enough cells,0.88,6380
ZFP82 (ZFP82 zinc finger protein),-1.11,migration z between -2 and 2; enough cells,0.6,5280
CRYZL1 (crystallin zeta like 1),0.88,migration z between -2 and 2; enough cells,0.98,6308
KRT13 (keratin 13),-3.66 (active),migration z below -2; enough cells,-0.06,4020
"FAM199X (family with sequence similarity 199, X-linked)",0.34,migration z between -2 and 2; enough cells,0.98,5795
CARD14 (caspase recruitment domain family member 14),1.26,migration z between -2 and 2; enough cells,1.22,4074
SERINC4 (serine incorporator 4),1.07,migration z between -2 and 2; enough cells,1.17,6406
MARCKSL1 (MARCKS like 1),-1.58,migration z between -2 and 2; enough cells,0.48,5258
CA1 (carbonic anhydrase 1),1.02,migration z between -2 and 2; enough cells,1,6074
ELAVL3 (ELAV like RNA binding protein 3),-1.66,migration z between -2 and 2; enough cells,0.46,4548
"ABHD6 (abhydrolase domain containing 6, acylglycerol lipase)",0.8,migration z between -2 and 2; enough cells,0.96,5973
ATP7A (ATPase copper transporting alpha),-1.53,migration z between -2 and 2; enough cells,0.51,4912
PLPP7 (phospholipid phosphatase 7 (inactive)),-1.06,migration z between -2 and 2; enough cells,0.6,5452
